# Measurements reported in the supplement of paper PMC6411743.
# ± gives the standard deviation of the averaged measurements. The list shows a part of the results.
# Molecular target: T1, UniProt P55036 and related entries
# T1 sequence (whole entry): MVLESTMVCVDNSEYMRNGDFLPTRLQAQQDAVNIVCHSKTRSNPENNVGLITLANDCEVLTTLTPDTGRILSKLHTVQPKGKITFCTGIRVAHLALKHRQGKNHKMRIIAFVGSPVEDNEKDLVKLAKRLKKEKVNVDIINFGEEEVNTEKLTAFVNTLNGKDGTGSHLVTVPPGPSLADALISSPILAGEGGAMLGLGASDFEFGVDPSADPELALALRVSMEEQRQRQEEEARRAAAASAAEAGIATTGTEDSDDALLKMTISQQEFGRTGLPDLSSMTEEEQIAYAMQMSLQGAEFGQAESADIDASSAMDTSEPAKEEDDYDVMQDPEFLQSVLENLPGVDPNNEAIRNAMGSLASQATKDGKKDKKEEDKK
# Assay: NP40-soluble protein abundance relative to vehicle (solubility fold change) (ratio); higher = more soluble protein in presence of GTP
# Protocol: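 Solubility proteome profiling in Jurkat crude lysate. Lysate was treated with Mg-GTP (0.1-10 mM) for 10 min at room temperature and 3 min at 37 °C, then solubilised with 0.8% NP40 and benzonase, followed by ultracentrifugation. Proteins were quantified by TMT10 LC-MS/MS; the value is the NP40-soluble abundance relative to the NP40-processed vehicle, from 3 independent experiments.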
compound,measurement,setting,value
Nc1nc2c(ncn2[C@@H]2O[C@H](COP(=O)(O)OP(=O)(O)OP(=O)(O)O)[C@@H](O)[C@H]2O)c(=O)[nH]1 [guanosine triphosphate],NP40-soluble protein abundance,concentration: 0.1mM,0.929 ± 0.091
same,NP40-soluble protein abundance,concentration: 0.5mM,0.96 ± 0.078
same,NP40-soluble protein abundance,concentration: 1mM,0.923 ± 0.064
same,NP40-soluble protein abundance,concentration: 2mM,0.975 ± 0.068
same,NP40-soluble protein abundance,concentration: 4mM,0.98 ± 0.13
same,NP40-soluble protein abundance,concentration: 6mM,0.988 ± 0.1
same,NP40-soluble protein abundance,concentration: 8mM,0.972 ± 0.084
same,NP40-soluble protein abundance,concentration: 10mM,0.994 ± 0.11
